Test results reported in patent publication US6887894B2, “Use of lipoic acid for improving the bioavailability of mineral salts” (BASF Aktiengesellschaft, priority 2000, dated 2005).

Assay: Study 3: Zn intake, fecal excretion and apparent absorption of zinc
Type: in vivo
Conditions: rats, PA-containing diets with high Zn level (20 mg/kg of diet)
Protocol: 36 male Wistar albino rats (Harlan Winkelmann, Borchen) having an initial weight of 47.0±2.63 g were randomly divided into 6 groups each of 6 animals and fed the diets specified in Table 7 (experimental design) and Section 5.2 over a period of 28 days. The animals were kept individually in Makrolon cages on stainless grids under standard conditions (22° C., 55% relative humidity, 12 hour light/dark rhythm). Feed and deionized drinking water were available to the experimental animals ad libitum. During the 2nd and 3rd experimental week (metabolism phase) feces were collected quantitatively. After completion of the experimental phase (day 28), the animals were decapitated under CO2— anesthesia, exsanguinated and the tissue to be analyzed was removed. […]
During the two-week metabolism phase, the rat feces were collected daily, adherent feed residues and other impurities were removed and the samples were stored at −20° C. At the end of the metabolism period the fecal weight was determined quantitatively and feces were then freeze-dried under vacuum over a period of 48 h (Gamma 1-20, Christ, Osterode). […]
A sample aliquot of 1.5 g or the freeze-dried and ground fecal samples was dried for 24 h at 105° C. to remove residual water and then ashed in a muffle furnace at 450° C. for 21 h. The ash residue was dissolved by acid addition and then analyzed quantitatively. […]

SMILES: O=C(O)CCCC[C@@H]1CCSS1 [Zn lipoate, Zn((R)-α-lipoate)2(H2O)2]
- Zn intake, effect of Zn lipoate supplementation: significantly higher
